The supplement of paper PMC10331698
± gives the standard deviation of the averaged measurements. Most values lie at the level of the controls, where differences are scatter.

Key:
Assay in all cases: level (log10 ratio to DMSO vehicle control); higher = higher biomarker level / cell amount than vehicle control
[1] = compound: C=C(C)C(=O)OCCC(F)(F)C(F)(F)C(F)(F)C(F)(F)C(F)(C(F)(F)F)C(F)(F)F [(Perfluoro-5-methylhexyl)ethyl 2-methylprop-2-enoate]; details: in DMSO
Procedure: (§1)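 BioMAP Diversity Plus panel of 12 human primary cell co-culture systems (3C, 4H, LPS, SAg, BT, BF4T, BE3C, CASM3C, HDF3CGF, KF3CT, MyoF, Mphg). Compounds were added 1 h before stimulation and left for 24 h (MyoF 48 h; BT 72 h for soluble read-outs or 6 d for IgG). Biomarkers were read by ELISA, cytotoxicity by SRB, PBMC viability and proliferation by Alamar Blue. Each well value was divided by the mean of 8 DMSO control wells on the same plate and log10 transformed; duplicate blinded samples were tested at 4 concentrations.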

[2] = compound: C=C(C)C(=O)OCCC(F)(F)C(F)(F)C(F)(F)C(F)(F)C(F)(F)C(F)(F)C(F)(F)C(F)(F)F [8:2 Fluorotelomer methacrylate]; details: in DMSO
Procedure: as §1

[3] = compound: COC(=O)CCC(F)(F)C(F)(F)C(F)(F)C(F)(F)F [Methyl 2H,2H,3H,3H-perfluoroheptanoate]; details: 2200 nM; in DMSO
Procedure: as §1

[4] = compound: FC(F)(F)C(F)(F)C(F)(F)C(F)(F)C(F)(F)CCI [1-Iodo-1H,1H,2H,2H-perfluoroheptane]; details: 2200 nM; in DMSO
Procedure: as §1

Octafluoroadipamide = compound: NC(=O)C(F)(F)C(F)(F)C(F)(F)C(F)(F)C(N)=O [Octafluoroadipamide]; details: 2200 nM; in DMSO
Procedure: as §1

Nonafluoropentanamide = compound: NC(=O)C(F)(F)C(F)(F)C(F)(F)C(F)(F)F [Nonafluoropentanamide]; details: 2200 nM; in DMSO
Procedure: as §1

[5] = compound: NS(=O)(=O)C(F)(F)C(F)(F)C(F)(F)C(F)(F)C(F)(F)C(F)(F)F [Perfluorohexanesulfonamide]; details: 2200 nM; in DMSO
Procedure: as §1

Tetrafluorosuccinic acid = compound: O=C(O)C(F)(F)C(F)(F)C(=O)O [Tetrafluorosuccinic acid]; details: 2200 nM; in DMSO
Procedure: as §1

[6] = compound: O=C(O)C(F)(F)C(F)(F)C(F)(F)C(F)(F)C(F)(F)C(F)(F)C(F)(F)C(F)(F)Cl [9-Chloro-perfluorononanoic acid]; details: in DMSO
Procedure: as §1

[7] = compound: O=C(O)CCC(F)(F)C(F)(F)C(F)(F)C(F)(F)C(F)(F)F [2H,2H,3H,3H-Perfluorooctanoic acid]; details: 2200 nM; in DMSO
Procedure: as §1

[8] = compound: O=S(=O)(O)C(F)(F)C(F)(F)OC(F)(F)C(F)(F)F [Perfluoro(2-ethoxyethane)sulfonic acid]; details: 2200 nM; in DMSO
Procedure: as §1

[9] = compound: O=S(=O)(O)CCC(F)(F)C(F)(F)C(F)(F)C(F)(F)C(F)(F)C(F)(F)F [6:2 Fluorotelomer sulfonic acid]; details: in DMSO
Procedure: as §1

Perfluoropinacol = compound: OC(C(F)(F)F)(C(F)(F)F)C(O)(C(F)(F)F)C(F)(F)F [Perfluoropinacol]; details: in DMSO
Procedure: as §1

[10] = compound: OCCC(F)(F)C(F)(F)C(F)(F)C(F)(F)F [4:2 Fluorotelomer alcohol]; details: 2200 nM; in DMSO
Procedure: as §1

Row | Test System | level (log10) ([1]; 740 nM) | level (log10) ([1]; 2200 nM) | level (log10) ([1]; 6700 nM) | level (log10) ([1]; 20000 nM) | level (log10) ([2]; 740 nM) | level (log10) ([2]; 2200 nM) | level (log10) [3] | level (log10) [4] | level (log10) (Octafluoroadipamide) | level (log10) (Nonafluoropentanamide) | level (log10) [5] | level (log10) (Tetrafluorosuccinic acid) | level (log10) ([6]; 2200 nM) | level (log10) ([6]; 6700 nM) | level (log10) ([6]; 20000 nM) | level (log10) [7] | level (log10) [8] | level (log10) ([9]; 2200 nM) | level (log10) ([9]; 6700 nM) | level (log10) ([9]; 20000 nM) | level (log10) ([9]; 60000 nM) | level (log10) (Perfluoropinacol; 2200 nM) | level (log10) (Perfluoropinacol; 6700 nM) | level (log10) (Perfluoropinacol; 20000 nM) | level (log10) [10]
1 | 3C:CD87/uPAR | -0.0275 ± 0.0092 | -0.0135 ± 0.005 | -0.007 ± 0.0028 | -0.019 ± 0.028 | 0.0385 ± 0.0064 | 0.057 ± 0.011 | -0.02 ± 0.0028 | -0.006 ± 0.0042 | 0.0045 ± 0.021 | -0.0155 ± 0.013 | -0.0245 ± 0.0064 | -0.0145 ± 0.0021 | -0.0085 ± 0.028 | -0.013 ± 0.017 | -0.011 ± 0.038 | -0.02 ± 0.059 | 0.0205 ± 0.016 | -0.03 ± 0.071 | -0.0235 ± 0.07 | -0.0245 ± 0.023 | -0.0015 ± 0.015 | -0.056 ± 0.0057 | -0.159 ± 0.04 | -0.29 ± 0.022 | -0.006 ± 0.023
2 | LPS:CXCL8/IL-8 | 0.008 ± 0.011 | -0.0115 ± 0.054 | 0.006 ± 0.045 | 0.016 ± 0.047 | 0.002 ± 0.0042 | -0.01 ± 0.011 | 0.02 ± 0.038 | 0.009 ± 0.044 | 0.0195 ± 0.094 | -0.003 ± 0.062 | 0.0005 ± 0.023 | 0.006 ± 0.0042 | 0.03 ± 0.068 | 0.019 ± 0.062 | 0.061 ± 0.048 | 0.101 ± 0.019 | 0.063 ± 0.02 | 0.0655 ± 0.0021 | 0.045 ± 0.013 | 0.072 ± 0.064 | 0.192 ± 0.1 | 0 ± 0.0014 | -0.003 ± 0.0028 | -0.0315 ± 0.0021 | -0.0075 ± 0.0078
3 | BE3C:CD54/ICAM-1 | -0.003 ± 0.027 | -0.001 ± 0.0028 | -0.0075 ± 0.0021 | 0.005 ± 0.0042 | -0.0105 ± 0.0078 | -0.007 ± 0.0057 | 0.01 ± 0.0057 | 0.01 ± 0.0057 | 0.0095 ± 0.036 | 0.0075 ± 0.0021 | 0.0025 ± 0.039 | 0.0105 ± 0.036 | -0.017 ± 0.0014 | 0.0145 ± 0.018 | -0.033 ± 0.014 | -0.0175 ± 0.0035 | 0.0015 ± 0.0092 | -0.019 ± 0.013 | -0.006 ± 0.0085 | -0.0145 ± 0.005 | -0.04 ± 0.023 | 0.0105 ± 0.012 | -0.003 ± 0.0085 | -0.0095 ± 0.0035 | 0.03 ± 0.025
4 | 4H:CCL2/MCP-1 | -0.013 ± 0.017 | -0.014 ± 0.0014 | -0.0135 ± 0.011 | 0.002 ± 0.0042 | -0.0105 ± 0.063 | -0.008 ± 0.071 | -0.0045 ± 0.06 | 0.011 ± 0.018 | 0.011 ± 0.061 | -0.0205 ± 0.012 | 0.027 ± 0.088 | -0.0145 ± 0.0078 | 0.004 ± 0.045 | -0.001 ± 0.014 | -0.0245 ± 0.0035 | 0.0125 ± 0.016 | 0.013 ± 0.018 | -0.0055 ± 0.05 | -0.0135 ± 0.056 | 0.0065 ± 0.029 | -0.02 ± 0.011 | 0.014 ± 0.05 | -0.058 ± 0.023 | -0.168 ± 0.025 | -0.0135 ± 0.042
5 | HDF3CGF:CCL2/MCP-1 | -0.0225 ± 0.04 | -0.017 ± 0.0071 | -0.0335 ± 0.0092 | -0.024 ± 0.023 | -0.0115 ± 0.0078 | -0.006 ± 0.0014 | -0.0125 ± 0.042 | 0.0085 ± 0.028 | -0.0005 ± 0.04 | -0.019 ± 0.0099 | -0.009 ± 0.027 | -0.0105 ± 0.00071 | 0.0105 ± 0.011 | 0.0205 ± 0.022 | -0.013 ± 0.021 | 0.011 ± 0.037 | 0.0265 ± 0.0064 | 0.0145 ± 0.04 | 0.0075 ± 0.019 | 0.0085 ± 0.021 | 0.008 ± 0.014 | 0.013 ± 0.0071 | 0.0595 ± 0.0064 | 0.09 ± 0.0085 | -0.0475 ± 0.088
6 | BT:sIL-17A | -0.0085 ± 0.26 | -0.04 ± 0.1 | -0.19 ± 0.31 | -0.015 ± 0.15 | 0.0435 ± 0.14 | 0.12 ± 0.17 | 0.0415 ± 0.052 | -0.0815 ± 0.26 | -0.0675 ± 0.064 | -0.0305 ± 0.14 | -0.161 ± 0.03 | 0.0005 ± 0.11 | -0.0215 ± 0.098 | 0.015 ± 0.054 | 0.008 ± 0.047 | -0.0995 ± 0.019 | -0.037 ± 0.09 | -0.0545 ± 0.071 | -0.135 ± 0.05 | -0.005 ± 0.081 | -0.126 ± 0.21 | -0.0905 ± 0.018 | -0.177 ± 0.11 | -0.642 ± 0.061 | -0.03 ± 0.15
7 | LPS:CCL2/MCP-1 | 0.022 ± 0.037 | 0.0105 ± 0.0064 | 0.009 ± 0.021 | 0.0115 ± 0.028 | 0.023 ± 0.017 | 0.0065 ± 0.005 | 0.0085 ± 0.029 | 0.001 ± 0.011 | 0.0155 ± 0.035 | 0.004 ± 0.0099 | 0.003 ± 0.038 | -0.0105 ± 0.0064 | 0.011 ± 0.035 | 0.005 ± 0.038 | 0.006 ± 0.0028 | 0.013 ± 0.0099 | 0.013 ± 0.0085 | 0.015 | 0.0095 ± 0.0021 | 0.037 ± 0.018 | 0.056 ± 0.037 | 0.006 ± 0.021 | 0.0205 ± 0.00071 | -0.103 ± 0.0078 | -0.024 ± 0.064
8 | BE3C:CD87/uPAR | -0.0035 ± 0.032 | 0.003 ± 0.027 | 0.0035 ± 0.016 | 0.0165 ± 0.035 | 0.0235 ± 0.0064 | -0.0115 ± 0.028 | -0.0155 ± 0.039 | -0.0145 ± 0.013 | -0.0205 ± 0.012 | 0.021 ± 0.03 | 0.0235 ± 0.043 | 0.016 ± 0.0014 | 0.0155 ± 0.061 | 0.0445 ± 0.0021 | -0.0005 ± 0.039 | 0.0125 ± 0.015 | 0.022 ± 0.0028 | 0.0125 ± 0.005 | 0.003 ± 0.0014 | -0.0065 ± 0.011 | 0.0235 ± 0.018 | -0.0165 ± 0.021 | -0.0675 ± 0.019 | -0.231 ± 0.016 | 0.0215 ± 0.054
9 | CASM3C:M-CSF | 0.012 ± 0.064 | -0.022 ± 0.0085 | -0.009 ± 0.0085 | 0.0195 ± 0.036 | 0.0025 ± 0.015 | -0.0215 ± 0.018 | 0.023 ± 0.031 | 0.014 ± 0.0028 | 0.016 ± 0.048 | 0.015 ± 0.027 | 0.0205 ± 0.049 | 0.0125 ± 0.036 | 0.0025 ± 0.035 | -0.0235 ± 0.0035 | -0.0315 ± 0.011 | 0.015 ± 0.052 | 0.0055 ± 0.042 | 0.009 ± 0.047 | -0.011 ± 0.044 | -0.002 ± 0.0085 | 0.002 ± 0.037 | 0.03 ± 0.03 | 0.0505 ± 0.0021 | 0.0315 ± 0.0092 | -0.012 ± 0.014
10 | LPS:sTNF-alpha | -0.014 ± 0.055 | 0.006 ± 0.0099 | 0.0265 ± 0.04 | 0.0345 ± 0.063 | -0.0165 ± 0.0021 | 0.006 ± 0.0014 | 0.0245 ± 0.035 | 0.0015 ± 0.044 | 0.053 ± 0.024 | 0.0115 ± 0.032 | -0.046 ± 0.0071 | -0.002 ± 0.011 | -0.0155 ± 0.022 | -0.0115 ± 0.0078 | -0.004 ± 0.014 | -0.016 ± 0.013 | 0.0015 ± 0.0064 | -0.01 ± 0.0099 | -0.002 ± 0.0042 | 0 ± 0.0057 | 0.0015 ± 0.0092 | 0.0085 ± 0.013 | -0.0005 ± 0.025 | 0.008 ± 0.03 | 0.016 ± 0.057
